Reference: article PMC11130342
No constants are given. Whether binding was seen depends on the method and setting. For some of these results: Binding calls can cover weak binding; strength is not graded here. Sequences can lack the tags named with a protein. For some of these results: Binding seen in cells or lysates may run through a third protein. One block for each molecule: values may come before it.

Assays:
[1] = target: T1, OsSRF8 (N), N-terminal (extracellular) domain of OsSRF8, amino acids 26-320, yeast two-hybrid fusion (rice (Oryza sativa)); test: two-hybrid; yeast AH109, fragments in pGADT7 (AD) and pGBKT7 (BD), co-transformed, growth on selection medium
T1 sequence: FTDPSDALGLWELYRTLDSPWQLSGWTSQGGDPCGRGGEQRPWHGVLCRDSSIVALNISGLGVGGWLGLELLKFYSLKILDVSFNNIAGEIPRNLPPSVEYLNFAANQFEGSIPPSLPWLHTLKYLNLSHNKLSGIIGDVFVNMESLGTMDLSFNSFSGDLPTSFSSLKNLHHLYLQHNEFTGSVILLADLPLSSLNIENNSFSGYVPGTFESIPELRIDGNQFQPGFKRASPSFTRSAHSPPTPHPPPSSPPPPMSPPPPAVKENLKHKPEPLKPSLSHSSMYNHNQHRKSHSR

[2] = target: T2, OsSRF8 (C), C-terminal (intracellular) domain of OsSRF8, amino acids 344-757, yeast two-hybrid fusion (rice (Oryza sativa)); test: as above
T2 sequence: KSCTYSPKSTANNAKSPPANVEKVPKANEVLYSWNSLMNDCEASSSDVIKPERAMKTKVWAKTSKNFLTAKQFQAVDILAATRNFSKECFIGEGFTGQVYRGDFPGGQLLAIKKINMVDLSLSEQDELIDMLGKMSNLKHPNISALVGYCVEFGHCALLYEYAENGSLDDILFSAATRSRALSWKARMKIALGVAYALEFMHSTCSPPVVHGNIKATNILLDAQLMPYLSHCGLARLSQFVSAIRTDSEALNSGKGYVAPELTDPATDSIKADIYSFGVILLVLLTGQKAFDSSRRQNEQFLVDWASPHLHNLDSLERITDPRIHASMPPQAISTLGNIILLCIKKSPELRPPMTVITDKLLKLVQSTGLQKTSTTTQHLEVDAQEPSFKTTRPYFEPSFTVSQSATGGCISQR

[3] = target: T3, OsSRF8 (N)-Flag, amino acids 26-320 (pCAMBIA1300-Flag) (rice (Oryza sativa)); test: co-IP; N. benthamiana leaves; IP buffer 50 mM Tris-HCl pH 7.5, 100 mM NaCl, 0.75% Triton X-100; anti-Flag M2 agarose beads, 4 °C; blot with anti-GFP and anti-Flag
T3 sequence: T1 sequence

[4] = target: T4, truncated OsSRF8(N), amino acids 26-320, fused to the N-terminal part of YFP (pSPYNE) (rice (Oryza sativa)); test: split reporter; BiFC, YFP halves (pSPYNE/pSPYCE), co-infiltrated N. benthamiana leaves, 48 h, confocal microscopy
T4 sequence: T1 sequence

[5] = target: T5, full-length OsSRF8 fused to the N-terminal part of YFP (pSPYNE) (rice (Oryza sativa)); test: as above
T5 sequence: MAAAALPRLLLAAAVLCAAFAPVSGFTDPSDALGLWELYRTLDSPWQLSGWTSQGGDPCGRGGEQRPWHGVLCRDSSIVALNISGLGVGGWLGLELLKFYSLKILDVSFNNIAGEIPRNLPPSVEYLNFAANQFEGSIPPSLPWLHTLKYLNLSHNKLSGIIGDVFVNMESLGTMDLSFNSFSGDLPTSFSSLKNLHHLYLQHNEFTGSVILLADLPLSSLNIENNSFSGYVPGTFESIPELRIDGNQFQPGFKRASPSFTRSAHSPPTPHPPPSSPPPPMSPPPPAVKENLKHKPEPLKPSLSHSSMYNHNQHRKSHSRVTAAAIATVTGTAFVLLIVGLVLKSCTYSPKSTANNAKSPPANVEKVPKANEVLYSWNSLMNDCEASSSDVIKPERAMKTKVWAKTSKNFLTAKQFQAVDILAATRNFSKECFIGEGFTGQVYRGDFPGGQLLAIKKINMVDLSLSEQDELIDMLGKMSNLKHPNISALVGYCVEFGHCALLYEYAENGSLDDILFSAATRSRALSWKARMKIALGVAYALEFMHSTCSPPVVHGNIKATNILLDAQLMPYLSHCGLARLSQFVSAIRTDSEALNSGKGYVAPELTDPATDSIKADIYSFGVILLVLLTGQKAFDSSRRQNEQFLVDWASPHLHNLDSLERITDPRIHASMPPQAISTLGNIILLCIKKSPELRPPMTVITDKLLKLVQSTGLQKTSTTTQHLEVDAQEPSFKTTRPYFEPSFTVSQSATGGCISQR

[6] = target: OsDAF1-Flag (pAN580-Flag) (rice (Oryza sativa)); test: co-IP; rice protoplasts; IP buffer 50 mM Tris-HCl pH 7.5, 100 mM NaCl, 0.75% Triton X-100; anti-Flag M2 agarose beads, 4 °C; blot with anti-HA and anti-Flag
[7] = target: OsDAF1(C)-Flag, amino acids 355-695 (pCAMBIA1300-Flag) (rice (Oryza sativa)); test: co-IP; N. benthamiana leaves; IP buffer 50 mM Tris-HCl pH 7.5, 100 mM NaCl, 0.75% Triton X-100; anti-Flag M2 agarose beads, 4 °C; blot with anti-GFP and anti-Flag

Molecule: OsINP1 (INAPERTURATE POLLEN1), yeast two-hybrid fusion (rice (Oryza sativa))
binding [1]: binds
binding [2]: no binding

Molecule: OsINP1-GFP (pCAMBIA1305-GFP) (rice (Oryza sativa))
binding [3]: binds

B1: OsSRF8-HA (pAN580-HA) (protein)
chain: T5 sequence
binding [6]: binds

Now from value to molecule:

binding [4]: binds
binding [5]: binds
Molecule: OsINP1 fused to the C-terminal part of YFP (pSPYCE) (rice (Oryza sativa))

binding [7]: binds
B2: OsSRF8 (C)-GFP, amino acids 344-757 (pCAMBIA1305-GFP) (domain or fragment)
chain: T2 sequence
